Laboratory results: US20150126546A1, “Treatment of Cognitive Disorders with Certain Alpha-7 Nicotinic Acid Receptors in Combination with Acetylcholinesterase Inhibitors” (Forum Pharmaceuticals, Inc., priority 2009, published 2015)
Counter-ions that a name gives are not always drawn.

System: 5-month-old male Wistar rats
Assay: Object recognition task after scopolamine treatment
Assay type: in vivo
Conditions: scopolamine 0.1 mg/kg i.p., donepezil 0.1 mg/kg p.o., EVP-6124 0.03 mg/kg p.o., all 30 min before T1, n = 23; for Mean values (±SEM) of total exploration time during the second trial (e2): 1 h delay
Text: The object recognition task allows the assessment of consolidation of (object) information into memory (Ennaceur and Delacour, 1988; Prickaerts et al., 1997). In this task a rat is given two trials. In the first trial the rat is put into an arena in which two identical objects are placed. Usually, a rate will inspect the two objects for a certain amount of time. After a certain delay, the rat is given a second trial. In this trial the rat is again placed in the same arena but one of the objects has been replaced by a novel object. Similar to the first trial the rat again explores the two objects. The amount of time exploring each object is recorded in order to determine whether the rat spent a different amount of time exploring the two objects. On basis of this scoring the memory performance can be determined.
All drugs were given 30 minutes before the first trial.
All experimental procedures were approved by the local ethical committee of the Maastricht University for animal experiments and met governmental guidelines. Twenty-four 5-month-old male Wistar rats (Harlan, The Netherlands) were used (average body weights: 465 g). […] The animals were individually housed in standard type 3 Makrolon cages on sawdust bedding in an air-conditioned room (about 20° C.). They were kept under a 12/12-hour light/dark cycle (lights on from 19.00 to 7.00 h) and had free access to food and water. Rats were housed in the same room as where the animals were tested. A radio, which was playing softly, provided background noise in the room. All testing was done between 9.00 and maximally 18.00 h.
EVP-6124 was dissolved in H2O. The solution was prepared daily and tested at a dose of 0.03 mg/kg p.o. (injection volume 2 ml/kg). […] Donepezil was dissolved in saline. The solution was prepared daily and tested at a dose of 0.1 mg/kg p.o. (injection volume 2 ml/kg). Administration was always 30 min before trial 1 immediately after (R)-7-chloro-N-(quinuclidin-3-yl)benzo[b]thiophene-2-carboxamide.
Subsequently donepezil, (R)-7-chloro-N-(quinuclidin-3-yl)benzo[b]thiophene-2-carboxamide and the combination of both were tested (n=8 per condition per day of testing). All rats were treated once with each dose condition. […] The experimentator was unaware of the condition/drugs being tested.
The object recognition test was performed as described elsewhere (Ennaceur and Delacour, 1988). The apparatus consisted of a circular arena, 83 cm in diameter. Half of the 40 cm high wall was made of gray polyvinyl chloride, the other half of transparent polyvinyl chloride. The light intensity was equal in the different parts of the apparatus. Two objects were placed in a symmetrical position about 10 cm away from the gray wall. Each object was available in triplicate. The objects were: 1) a cone consisting of a gray polyvinyl chloride base (maximal diameter 18 cm) with a collar on top made of brass (total height 16 cm), 2) a standard 1 l brown transparent glass bottle (diameter 10 cm, height 22 cm) filled with water, 3) a massive metal cube (10.0×5.0×7.5 cm) with two holes (diameter 1.9 cm), and 4) a massive aluminum cube with a tapering top (13.0×8.0×8.0 cm). A rat could not displace the objects. Fluorescent red tubes and a light bulb provided a constant illumination of about 20 lux on the floor of the apparatus.
A testing session comprised two trials. The duration of each trial was 3 min. During the first trial (T1) the apparatus contained two identical objects (samples). […]

Structure (SMILES) | Mean values (±SEM) of total exploration time during the second trial (e2) | Mean values (±SEM) of total exploration time during the first trial (e1)
CN1[C@@H]2C[C@@H](OC(=O)[C@H](CO)c3ccccc3)C[C@H]1[C@@H]1O[C@@H]12 [scopolamine] | 21.65 (1.76) s | 
O=C(N[C@H]1CN2CCC1CC2)c1cc2cccc(Cl)c2s1 [EVP-6124, (R)-7-chloro-N-(quinuclidin-3-yl)benzo[b]thiophene-2-carboxamide] | 22.98 (1.67) s | 21.08 (1.46) s
COc1cc2c(cc1OC)C(=O)C(CC1CCN(Cc3ccccc3)CC1)C2 (centres unmarked) [donepezil, 1-benyzl-4-[(5,6-dimethoxy-1-indanon)-2-yl]methylpiperidine monohydrochloride] | 21.38 (1.45) s | 20.80 (1.75) s
